# Reference: patent publication US20220185911A1
# The chains behind the UniProt entries cited, without tags or fusion partners. Where a name states a change or a piece, a line headed by the entry shows the natural chain unless it says otherwise. A line that says so, or that is headed by a name, gives the form on record, which may keep a tag or linker.
# vascular endothelial growth factor (VEGF) (P15692, form named): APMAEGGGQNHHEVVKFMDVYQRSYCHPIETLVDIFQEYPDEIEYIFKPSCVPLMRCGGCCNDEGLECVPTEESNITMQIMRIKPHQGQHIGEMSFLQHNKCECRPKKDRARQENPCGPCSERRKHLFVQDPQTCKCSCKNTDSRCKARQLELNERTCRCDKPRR
# These are yes or no findings as the source states them, for the method shown. Some binding calls cover weakened binding; strength is not graded here.
# Legend:
# [1] = target: vascular endothelial growth factor (VEGF) (UniProt P15692); experiment: ELISA
# [2] = target: vascular endothelial growth factor (VEGF) (UniProt P15692); experiment: ELISA (FIG. 6C)
binder,measurement,setting,value
"monoclonal antibody D5 (antibody, human IgG1, V domains shown) VH: EVQLVESGGGLIQPGGSLRLSCAASGFTVSSNYMSWVRQAPGKGLEWVSVIYTGGGTYYADSVKGRFTISRDNSQNTLYLQMNSLRAEDTAVYYCAREAPFTAALYYWGQGTLVTVSS VL: QSVLTQPPSASGSPGQSVTISCTGTSSDVGGYNSVSWYQQHPGKAPKLMIYEVTIRPSGVPDRFSGSKSGNTASLTVSGLQAEDEADYYCSSYAGNNNRVVFGGGTKLTVL",binding,[1],binds
same,binding,[2],binds
